PubChem BioAssay AID1159578 – Peter MacCallum Cancer Centre, 2015
Here is one part, drawn at random, of about 18,000 reagents tested. Over the whole deposit, about 1,030 (5.7%) were called active. 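Inactive calls also include pools with fewer than 3300 nuclei, whose migration was not assessed.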 The raw values are shown without normalisation. A number with no mark means an inactive call. No sequences are given here.

Assay: 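Knock-downs that alter how fast lymphatic endothelial cells migrate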 (primary screen)
Cell system: human lymphatic endothelial cells
Reagents: siRNA pool against human genes, 40 nM
Time to read-out: 48 h after transfection
Detection: 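Cells stained with dye and imaged after a scratch; covered wound area and nuclei counted, duplicates averaged, migration set against mock wells and turned into a robust z-score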
Reading the numbers: migration robust z-score: higher = faster migration into the scratch; migration relative to mock: higher = more scratch area covered than mock; nuclei per well: higher = more cells in the well
Call rule: 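Migration changed when robust z exceeds 2 or falls below -2 and mean nuclei number is at least 3300; otherwise not called changed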
Meaning of the calls: active = migration changed; inactive = no migration change, or too few cells

gene	migration robust z-score	migration class with cell-count check	migration relative to mock	nuclei per well, duplicate mean
UGT1A4 (GeneID 54657)	-0.05	migration z between -2 and 2; enough cells	0.8	5018
MBD3 (GeneID 53615)	2.4 (active)	migration z above 2; enough cells	1.51	5799
B3GAT3 (GeneID 26229)	-0.1	migration z between -2 and 2; enough cells	0.78	5572
AZU1 (GeneID 566)	1.09	migration z between -2 and 2; enough cells	1.02	5476
HDAC10 (GeneID 83933)	-0.83	migration z between -2 and 2; enough cells	0.65	5886
GJB3 (GeneID 2707)	0.16	migration z between -2 and 2; enough cells	0.84	5596
FBP2 (GeneID 8789)	-0.34	migration z between -2 and 2; enough cells	0.74	6791
SLC2A7 (GeneID 155184)	-0.81	migration z between -2 and 2; enough cells	0.68	6374
KRIT1 (GeneID 889)	0.16	migration z between -2 and 2; enough cells	0.92	6460
SH3RF3 (GeneID 344558)	-1.48	migration z between -2 and 2; enough cells	0.52	5302
ZNF274 (GeneID 10782)	2.72 (active)	migration z above 2; enough cells	1.59	6369
SLC6A6 (GeneID 6533)	0.57	migration z between -2 and 2; enough cells	0.92	5830
USP18 (GeneID 11274)	-2.88 (active)	migration z below -2; enough cells	0.25	3788
REDIC1 (GeneID 283461)	-0.58	migration z between -2 and 2; enough cells	0.74	6390
NAE1 (GeneID 8883)	-0.1	migration z between -2 and 2; enough cells	0.78	6268
SLIT3 (GeneID 6586)	-1.23	migration z between -2 and 2; enough cells	0.57	4581
ATAD3A (GeneID 55210)	1.09	migration z between -2 and 2; enough cells	1.17	6848
C21orf58 (GeneID 54058)	0.16	migration z between -2 and 2; enough cells	0.92	5242
GALR2 (GeneID 8811)	-0.94	migration z between -2 and 2; enough cells	0.62	6920
IPO11 (GeneID 51194)	-0.24	migration z between -2 and 2; enough cells	0.82	5074
KIR2DL5B (GeneID 553128)	-0.57	migration z between -2 and 2; enough cells	0.74	5748
FBXL18 (GeneID 80028)	-2.38 (active)	migration z below -2; enough cells	0.34	5382
RPUSD1 (GeneID 113000)	-0.02	migration z between -2 and 2; enough cells	0.8	6214
FGFR1OP2 (GeneID 26127)	-0.94	migration z between -2 and 2; enough cells	0.64	4961
MAFB (GeneID 9935)	1.07	migration z between -2 and 2; enough cells	1.17	5903
GSTM1 (GeneID 2944)	-0.62	migration z between -2 and 2; enough cells	0.68	5881
CLPTM1 (GeneID 1209)	0.34	migration z between -2 and 2; enough cells	0.98	6168
CRTC2 (GeneID 200186)	0.27	migration z between -2 and 2; enough cells	0.96	6859
PDZD9 (GeneID 255762)	2.33 (active)	migration z above 2; enough cells	1.49	5353
RANGRF (GeneID 29098)	-0.3	migration z between -2 and 2; enough cells	0.8	5056
TRIM59 (GeneID 286827)	0.93	migration z between -2 and 2; enough cells	0.98	5228
SHB (GeneID 6461)	2.08 (active)	migration z above 2; enough cells	1.21	4078
PGRMC1 (GeneID 10857)	-0.36	migration z between -2 and 2; enough cells	0.74	5826
SCGB2A2 (GeneID 4250)	2.26 (active)	migration z above 2; enough cells	1.47	5806
PYGM (GeneID 5837)	-1.55	migration z between -2 and 2; enough cells	0.5	3675
MAGEA2B (GeneID 266740)	1	migration z between -2 and 2; enough cells	1.14	6336
TMEM35A (GeneID 59353)	0.19	migration z between -2 and 2; enough cells	0.94	6075
TUBGCP5 (GeneID 114791)	1.13	migration z between -2 and 2; enough cells	1.18	5185
TRAPPC10 (GeneID 7109)	-0.16	migration z between -2 and 2; enough cells	0.84	6544

Reformatted: entries from further up
{"gene":"KIR2DL5B (GeneID 553128)","migration robust z-score":-0.57,"migration class with cell-count check":"migration z between -2 and 2; enough cells","migration relative to mock":0.74,"nuclei per well, duplicate mean":5748}
{"gene":"FBXL18 (GeneID 80028)","migration robust z-score":"-2.38 (active)","migration class with cell-count check":"migration z below -2; enough cells","migration relative to mock":0.34,"nuclei per well, duplicate mean":5382}
